{
  "source": "patent US20050049229A1",
  "about": "“Therapeutic applications of 2-hydroxyacetanilide” (priority 2003, published 2005)",
  "origin": "cited, not measured here",
  "test_system": "platelet aggregation",
  "details": "Dupin et al.; cited from earlier work",
  "note": "At least one structure is not confirmed: it was looked up by name or label, or the drawing left a doubt.",
  "data": [
    {"compound": "CC(=O)Nc1ccc(O)cc1", "note": "[Paracetamol, 4-hydroxyacetanilide]", "values": [
      {"measurement": "in vivo effect on platelet aggregation", "value": "no equivalent in vivo effect"}
    ]}
  ]
}
